PubChem BioAssay AID720505 – Drosophila RNAi Screening Center – 2013
The screen tested about 20,000 reagents; below is a random part of those with a known target gene and a result. Over the whole deposit, about 2,100 (10%) were called active. 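Raw plate signals without normalisation; calls rest on control-based scores that were not deposited; replicate 2 separates called from uncalled poorly.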 A number with no mark means an inactive call. Reagents against one gene are numbered here. The record does not give: the amount of reagent, the time to read-out.

Aim: 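Fly regulators or components of the CRAC channel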 (primary screen)
Cell system: Drosophila S2R+ cells
Reagents: long dsRNA against Drosophila genes
Conditions: thapsigargin (2 µM) in calcium-free buffer to empty internal stores, then 2 mM calcium added back
Detection: 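Fluo-4 signal in 384-well plates read on a FLIPR after thapsigargin (2 µM, calcium-free) store depletion and 2 mM calcium add-back; unnormalised mean endpoint per well; screen run twice, selected wells retested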
Reading the numbers: calcium signal: higher = more calcium entry after store depletion
Hit rule: 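About 1500 genes called as lowering calcium entry, by varying amounts, judged against per-plate control wells with STIM1 as positive and Rho1 as negative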
Meaning of the calls: active = called as lowering calcium entry; inactive = not called

{"target": "fs(1)N (female sterile (1) Nasrat)", "reagent no.": 1, "calcium signal, replicate 1": 67.5, "calcium signal, replicate 2": 102}
{"target": "CG11686", "reagent no.": 1, "calcium signal, replicate 1": 113, "calcium signal, replicate 2": 156}
{"target": "Pp1-13C (Protein phosphatase 1 at 13C)", "reagent no.": 1, "calcium signal, replicate 1": "61.4 (active)", "calcium signal, replicate 2": 67}
{"target": "Pp1-13C (Protein phosphatase 1 at 13C)", "reagent no.": 2, "calcium signal, replicate 1": 116, "calcium signal, replicate 2": 123}
{"target": "CG3040", "reagent no.": 1, "calcium signal, replicate 1": 141, "calcium signal, replicate 2": 179}
{"target": "Osi23 (Osiris 23)", "reagent no.": 1, "calcium signal, replicate 1": 149, "calcium signal, replicate 2": 133}
{"target": "CG5188", "reagent no.": 1, "calcium signal, replicate 1": 180, "calcium signal, replicate 2": 173}
{"target": "noi (noisette)", "reagent no.": 1, "calcium signal, replicate 1": "42.4 (active)", "calcium signal, replicate 2": 60.2}
{"target": "CG14488", "reagent no.": 1, "calcium signal, replicate 1": 156, "calcium signal, replicate 2": 128}
{"target": "CG17030", "reagent no.": 1, "calcium signal, replicate 1": 88.3, "calcium signal, replicate 2": 80.4}
{"target": "SP2353", "reagent no.": 1, "calcium signal, replicate 1": 109, "calcium signal, replicate 2": 153}
{"target": "CG43755", "reagent no.": 1, "calcium signal, replicate 1": 98.7, "calcium signal, replicate 2": 159}
